# Test results: PubChem BioAssay AID504834 (National Center for Advancing Translational Sciences (NCATS), 2011)
# In all, about 320,000 compounds went through this assay and about 22,000 (6.9%) were called active. This list was built around the results that the source calls inconclusive (neither active nor inactive); the mix of calls is not that of the screen. The call rests on the fitted dose curve; in most records, active means well fitted inhibition curve with a large enough effect; inconclusive means small, poorly fitted or top-dose-only effect, or another doubt; inactive means no such curve, though single readings can be large or run the other way. Where the call is inconclusive, the potency comes from a doubtful curve fit.
# Assay: Primary qHTS for delayed death inhibitors of the malarial parasite plastid, 96 hour incubation
# Details: P. falciparum luciferase reporter growth; series mostly up to 28.7 µM
# Method in brief: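 Luminescence readout: decreased luciferase signal marks inhibited growth of reporter-expressing P. falciparum in infected red cells (2% hematocrit, 0.05% parasitemia final), exposed to compound two generations (96 h, 37 C, 5% CO2).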
# Potency means the concentration at half of the fitted maximal effect.
row,Structure (SMILES),Potency
1,COC/C=C/C1=CC2=CC(=O)C(C)(OC(=O)c3cnc4ccccc4n3)C(=O)C2=CN1Cc1ccccc1 (centres undefined),"inconclusive: 11.7 µM [inhibitor, single point]"
2,Cc1[nH]c2ccccc2c1C(=O)C(=O)N1CCC2(CC1)OCCO2,"inconclusive: 0.0037 µM [inhibitor, full curve, poor fit]"
3,Cc1ccc(N(C(=O)C2COc3ccccc3O2)C(C(=O)NC2CCCCC2)c2cn(C)nc2C)cc1 (centres undefined),"inconclusive: 10.4 µM [inhibitor, partial curve]"
4,COc1ccc([N+](=O)[O-])cc1NCC(=O)Nc1cccc(S(=O)(=O)N2CCCC2)c1,"inconclusive: 8.28 µM [inhibitor, partial curve, poor fit]"
5,CCOC(=O)[C@H]1[C@H]2COc3ccc(Cl)cc3[C@@H]2N2C(=O)c3ccc(C)cc3NC(=O)[C@@]12C,"inconclusive: 18.5 µM [inhibitor, single point]"
6,CCOc1ccc(-c2c(C(=O)N/N=C/c3cccs3)nnn2-c2nonc2N)cc1,inactive
7,O=C(OCc1cccc(Cl)c1)c1cc(S(=O)(=O)N2CCCCC2)ccc1N1CCOCC1,active: 13.1 µM
8,CN(C(=O)c1c[nH]c(=O)cc1C(F)(F)F)c1ccc(Cl)cc1,"inconclusive: 18.5 µM [inhibitor, single point]"
9,Cc1cccc(NC(=O)C2CCN(c3ncnc4c3nc3n4CCCCC3)CC2)n1,"inconclusive: 18.5 µM [inhibitor, single point]"
10,COc1ccc(C(=O)Nc2cccc(-c3ccc(N4CCOCC4)nn3)c2)cc1,"inconclusive: 18.5 µM [inhibitor, single point]"
11,Cc1ccccc1C[n+]1cccc2ccccc21,"inconclusive: 1.47 µM [inhibitor, partial curve, poor fit]"
12,CCn1cc(C(=O)NCCCO)c(=O)c2cc(F)c(N3CCN(C)CC3)cc21,"inconclusive: 4.65 µM [inhibitor, partial curve]"
13,Cc1ccc(Cl)c(OC(=O)Cn2cnc3c2c(=O)n(C)c(=O)n3C)c1,inactive
14,COc1ccc(C(=O)c2ccc(OC)c(Br)c2)cc1Br,"inconclusive: 13.1 µM [inhibitor, single point]"
15,COc1ccc(N2C(=O)CCC(C(=O)O)C2c2ccc(F)cc2)cc1 (centres undefined),active: 2.62 µM
16,CCC(C)NC(=O)c1cn(CC)c2ccc(S(=O)(=O)N(C)C)cc2c1=O (centres undefined),"inconclusive: 18.5 µM [inhibitor, single point]"
17,COc1ccccc1NC(=O)c1cccnc1,inactive
18,O=C(N/N=C/c1cc(Br)c(O)c(Br)c1)C1CC1,inactive
19,CCCC(=Nc1ccccc1OC)C1=C(O)CC(c2ccccc2)CC1=O (centres undefined),"inconclusive: 2.08 µM [inhibitor, partial curve, poor fit]"
20,O=C(O)c1cccc(NS(=O)(=O)c2ccc3nnn(O)c3c2)c1,inactive
21,Cc1sc(NC(=O)c2ccc(OCC(C)C)cc2)c(C(N)=O)c1-c1ccc(Cl)cc1Cl,"inconclusive: 7.38 µM [inhibitor, partial curve, poor fit]"
22,CC1CCCC(C)N1CCCNC(=O)CCn1c(=O)c2cccn2c2cccnc21 (centres undefined),"inconclusive: 18.5 µM [inhibitor, single point]"

# 2 records drawn at random from the list so far, as already listed:
row,Structure (SMILES),Potency
16,CCC(C)NC(=O)c1cn(CC)c2ccc(S(=O)(=O)N(C)C)cc2c1=O (centres undefined),"inconclusive: 18.5 µM [inhibitor, single point]"
17,COc1ccccc1NC(=O)c1cccnc1,inactive

# Following part:

row,Structure (SMILES),Potency
1,Cc1cc(C)c(NC(=O)CS(=O)CC(=O)Nc2ccc(N3CCOCC3)cc2)c(C)c1 (centres undefined),inactive
2,Cc1ccc(NC(=O)CSc2ncccc2C(=O)Oc2cccc([N+](=O)[O-])c2)cc1Cl,"inconclusive: 18.5 µM [inhibitor, single point]"
3,CCN(CC)CCNC(=S)Nc1ccc2nc(N3CCN(CC)CC3)cc(C)c2c1,inactive
4,Cc1ccc(S(=O)(=O)N(CC(=O)NCc2ccco2)Cc2ccc(F)cc2)cc1,"inconclusive: 10.4 µM [inhibitor, single point]"
5,COCCn1c(SCC(=O)N2CC(=O)Nc3ccccc32)nnc1-c1ccoc1C,"inconclusive: 11.7 µM [inhibitor, single point]"
6,Cc1ccc(NC(=O)c2ccc(C#CC3(O)CCCCC3)cc2)cc1C,"inconclusive: 3.29 µM [inhibitor, partial curve]"
7,COc1cc(-c2nc3cnccn3c2Nc2ccccc2)ccc1O,active: 5.22 µM
8,FC(F)(F)c1ccccc1NC(=S)NC1CCN(Cc2ccccc2)CC1,"inconclusive: 11.7 µM [inhibitor, single point]"
9,O=C(Nc1nnc(C2=COCCO2)o1)c1cccc(F)c1,active: 14.7 µM
10,CCOC(=O)c1c(C)c(-c2ccccc2)n(CC(=O)N2CCCC2)c1C,"inconclusive: 9.28 µM [inhibitor, single point]"
11,COc1ccccc1-c1c(C)nn2c(N)c(-c3ccccc3)cnc12,inactive
12,O=C(CN1C(=O)/C(=C/c2ccco2)SC1=S)Nc1ccc(O)c(C(=O)O)c1,active: 14.7 µM
13,CSc1ncccc1C(=O)OCC(=O)N1CCOCC1,"inconclusive: 13.1 µM [inhibitor, partial curve, poor fit]"
14,O=C(COc1ccccc1Cl)NNC(=O)c1ccc2nc[nH]c2c1,inactive
15,Cc1cccc(NC(=O)COC(=O)CSc2ccccc2)c1C,inactive
16,COc1cc(OC)cc(C(=O)NC(=S)N2CCN(c3ccc(C(F)(F)F)cc3[N+](=O)[O-])CC2)c1,"inconclusive: 18.5 µM [inhibitor, single point]"
17,Cc1nonc1CC(=O)N1CCCC(C(=O)c2cccc(C(F)(F)F)c2)C1 (centres undefined),"inconclusive: 18.5 µM [inhibitor, single point]"
18,O=C(OCC(=O)N1CCOCC1)c1ccc(N2CCOCC2)c([N+](=O)[O-])c1,inactive
19,Cc1onc(NC(=O)NC(=O)c2ccccc2F)c1Br,inactive
20,CCn1c(CNc2nc(-c3ccccc3)cs2)nnc1SCC(=O)NCc1ccco1,"inconclusive: 18.5 µM [inhibitor, single point]"
21,NC(=O)c1ccc(NS(=O)(=O)c2ccc(Br)s2)cc1,inactive
22,COc1ccc(-c2nc(CS(=O)CC(=O)NCc3cccnc3)c(C)o2)cc1OC (centres undefined),"inconclusive: 4.15 µM [inhibitor, single point]"
